Assay results reported in patent US8415357B2 (Canbas Co., Ltd., priority 2007, dated 2013).
For at least one compound, name, drawing or mass did not settle the structure. Some of these results come from one statement about several compounds together. Some compounds share one range, which may span the group rather than tell each member.

Test system: ARH-77 cells
Experiment: Survival of SCID mice with xenografts of ARH-77 cells
Conditions: for survival rate by 50 days after transplantation: 4.1×10^6 ARH-77 cells i.p., oral 250 mg/kg once daily on Day 1 and Day 2, control about 30%

SMILES	duration of survival (1.9×10^6 ARH-77 cells i.p., 2 mg/kg intraperitoneal injection on day 1, 2 and 3, up to 80 days)	survival rate by 50 days after transplantation
C[C@@H]1C[C@H]2[C@@H]3CCC4=CC(=O)C=C[C@]4(C)[C@@]3(F)[C@@H](O)C[C@]2(C)[C@@]1(O)C(=O)CO [dexamethasone, reference compound]	longer survival duration than untreated control mice	–
CC1=C(COCCC(C)(C)C)C(=O)N(Nc2ccc(C(F)(F)F)c(Cl)n2)C1=O [Compound S03747, 3-[(3,3-dimethylbutoxy)methyl]-1-{[6-chloro-5-(trifluoromethyl) (2-pyridyl)]amino}-4-methylazoline-2,5-dione]	–	80-100%
CCCCOCC1=C(C)C(=O)N(Nc2ccc(C(F)(F)F)c(Cl)n2)C1=O [Compound S03518, 3-(butoxymethyl)-1-{[6-chloro-5-(trifluoromethyl)(2-pyridyl)]amino}-4-methylazoline-2,5-dione]	–	80-100%
